Values from PubChem BioAssay AID743454 (Peter MacCallum Cancer Centre, 2014).
The deposit covers about 18,000 reagents; shown is an unselected part. Of all reagents, 450 (2.5%) were called active. 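Single biological run; no consistent viability z cut-off exists, so the class columns, not z-scores, define the calls.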 A number with no mark means an inactive call.

- Aim: 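Genes whose loss kills vorinostat-resistant colon cancer cells under vorinostat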 (primary screen)
- System: human HCT116-VR colon cancer cells, selected for vorinostat resistance
- Reagents: siRNA pool against human genes, 40 nM siRNA pool
- Duration: vorinostat for 24 h, read-out about 72 h after transfection
- Conditions: vorinostat at 2.5 µM final
- Read-out: 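Cell viability by CellTiter-Fluor and caspase 3/7 activity by luminescence, each scaled to mock wells per plate, duplicates averaged, then robust z-scored over all plates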
- Direction: viability robust z-score: higher = more viable cells than screen typical; caspase robust z-score: higher = more caspase 3/7 activity than screen typical
- Hit rule: 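Hits are knock-downs in viability class RV1/RV2 or caspase class CA1/CA2, excluding ones that killed cells in the no-drug cell-count arm; hits then retested with single siRNAs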

CCL24 showed viability hit class no change; caspase hit class no change; viability robust z-score -0.2; caspase robust z-score -0.08. SEPTIN9 gave viability hit class no change; caspase hit class no change; viability robust z-score 0.54; caspase robust z-score -0.41. With knock-down of CCL17, the record shows viability hit class no change; caspase hit class no change; viability robust z-score -3.92; caspase robust z-score -0.62. With knock-down of RNF146, the screen gave viability hit class no change; caspase hit class no change; viability robust z-score 0.85; caspase robust z-score 0.43. BDNF scored viability hit class no change; caspase hit class no change; viability robust z-score 0.3; caspase robust z-score -1.04. Depletion of SPMIP5 came out at: viability hit class no change; caspase hit class no change; viability robust z-score -0.62; caspase robust z-score 0.06.

MASTL showed viability hit class no change; caspase hit class no change; viability robust z-score -0.48; caspase robust z-score 2.7. CLBA1 showed viability hit class no change; caspase hit class no change; viability robust z-score 1.46; caspase robust z-score 1.47.

Targets above whose target name starts with S or s (2):
SEPTIN9 | viability hit class = no change; caspase hit class = no change; viability robust z-score = 0.54; caspase robust z-score = -0.41
SPMIP5 | viability hit class = no change; caspase hit class = no change; viability robust z-score = -0.62; caspase robust z-score = 0.06

The list goes on:
Silencing of ULBP3 resulted in: viability hit class no change; caspase hit class no change; viability robust z-score -1.32; caspase robust z-score -0.54. MMADHC showed viability hit class no change; caspase hit class no change; viability robust z-score -0.03; caspase robust z-score -0.67. Knock-down of UTP4 gave: viability hit class no change; caspase hit class no change; viability robust z-score -1.64; caspase robust z-score 0.3. Silencing of IGSF9 resulted in: viability hit class no change; caspase hit class no change; viability robust z-score -0.88; caspase robust z-score -0.46.
